Earlier results in publication PMC7532004, “Site-specific effects of neurosteroids on GABAA receptor activation and desensitization” (eLife, 2020).
Where two headings read alike, the source gives them in different places.

Target: α1β2γ2 receptors
Conditions: read-out: Estimated GABA Kd, ref Chang et al., 2002, cited from earlier work

## NCCCC(=O)O [GABA]
Activated α1β2γ2 receptors
  Kd: 120 nM
Desensitized α1β2γ2 receptors
  Kd: 40 nM
Resting α1β2γ2 receptors
  Kd: 78500 nM
